Test results: patent US11718864B2, “Cells and method of cell culture” (PFIZER INC., priority 2015, dated 2023)

System: GS-CHO cells (Cell line A)
Assay: Growth (viable cell density) of GS-CHO cells in Medium A spiked with putative inhibitor metabolites
Assay type: cell-based, Chinese hamster
Details: single metabolite, at concentrations of 1 mM or lower; growth monitored 5 or 6 days
Method: GS-CHO cells producing a recombinant antibody were inoculated at low viable cell densities (0.1E6 cells/mL) in various conditions in 5 ml volume, 6-well plate cultures. […] The pH of the Medium A, spiked-in with any one of the nine metabolites or any combination of the nine metabolites, was adjusted to 7 before inoculating the cells (on day 0).
For indolelactate, the stock solution (500 mM) was prepared in DMSO. […] All the conditions were run in duplicates or triplicates. Growth of the cells in above described conditions was monitored for 5 or 6 days.

In the case of O=C(O)C(=O)Cc1ccc(O)cc1 [4-hydroxyphenylpyruvate], the “effect on growth of cells” value is reported as “potent negative effect on growth”.
